From the supplement of paper PMC4604168 (melanoma cell lines) come the findings set out here.

SMILES strings stand for the structures. This is one part of the list. Single values are uncertain, as repeats are few or missing.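 Imaging used 1,536-well plates; nuclei positive for cleaved PARP by antibody were divided by total DNA-stained nuclei to yield the apoptosis fraction. Doses for screening kept most cells viable, and cell lines differ markedly in resting and induced cleaved-PARP levels.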

This test concerns COLO829. Kind of test: cleaved PARP positive nuclei fraction relative to DMSO control; melanoma cells; higher = more apoptosis. The conditions noted are these: library dose: low library concentration; 72 h.
`CN(NC(=O)CC(=O)NN(C)C(=S)c1ccccc1)C(=S)c1ccccc1` + CCCCCCCCCCCC1=C(O)C(=O)C=C(O)C1=O [Embelin] (first compound 0.006 µM, partner dose 1.2 µM): the “cleaved PARP positive nuclei fraction” value came to 42.3%. As for `COc1ccc2c(c1)CCC1C2CCC2(C)C(NCCCCCCN3C(=O)C=CC3=O)CCC12` (configuration not stated) + O=c1cc(-c2cccc3c2Sc2ccccc2S3)oc(N2CCOCC2)c1 [KU55933] (first compound 0.4 µM, partner dose 1 µM), the figure is 80.6%; as for `COc1ccc2c(c1)CCC1C2CCC2(C)C(NCCCCCCN3C(=O)C=CC3=O)CCC12` (configuration not stated) + Oc1nc(-c2ccc(C(F)(F)F)cc2)nc2c1CSCC2 [XAV939] (first compound 0.4 µM, partner dose 2 µM), 141%; as for `O=C(O)c1ccc(-c2c[nH]c3ncc(-c4ccccc4)cc23)cc1C1CCCC1` + COc1ccc2c(c1)CCC1C2CCC2(C)C(NCCCCCCN3C(=O)C=CC3=O)CCC12 [U73122] (first compound 0.16 µM, partner dose 0.4 µM), 81.7%. As for `CCc1ccc(CCOc2ccc(CC3SC(=O)NC3=O)cc2)nc1` (configuration not stated) [pioglitazone] + Oc1nc(-c2ccc(C(F)(F)F)cc2)nc2c1CSCC2 [XAV939] (first compound 2 µM, partner dose 2 µM), the figure is 87%; as for `COc1cc2c(Oc3ccc4[nH]c(C)cc4c3F)ncnc2cc1OCCCN1CCCC1` [cediranib] + COc1cc2ncnc(Nc3ccc(Oc4ccccc4)cc3)c2cc1OC [SrcI1] (first compound 0.4 µM, partner dose 2 µM), 114%. As for `N#Cc1c(O)c2c(-c3ccc(-c4ccccc4O)cc3)csc2[nH]c1=O` + COc1cc2ncnc(Nc3ccc(Oc4ccccc4)cc3)c2cc1OC [SrcI1] (first compound 2 µM, partner dose 2 µM), the figure is 84.4%. As for `CN(NC(=O)CC(=O)NN(C)C(=S)c1ccccc1)C(=S)c1ccccc1` + CC(C)CCN1c2nc(Nc3cc(F)c(O)c(F)c3)ncc2N(C)C(=O)C1C [BID1870] (first compound 0.006 µM, partner dose 0.2 µM), the “cleaved PARP positive nuclei fraction” value stood at 155%.

For `CCc1ccc(CCOc2ccc(CC3SC(=O)NC3=O)cc2)nc1` (configuration not stated) [pioglitazone] + N#Cc1c(O)c2c(-c3ccc(-c4ccccc4O)cc3)csc2[nH]c1=O [A769662] (first compound 2 µM, partner dose 2 µM), the “cleaved PARP positive nuclei fraction” value was determined as 66.6%. The result for `Oc1nc(-c2ccc(C(F)(F)F)cc2)nc2c1CSCC2` + CCCCCCCCCCCC1=C(O)C(=O)C=C(O)C1=O [Embelin] (first compound 2 µM, partner dose 1.2 µM) reads 97.6%; that for `CCN(CC)CCCCNc1ncc2cc(-c3cc(OC)cc(OC)c3)c(NC(=O)NC(C)(C)C)nc2n1` + Cn1cc(/C=C2\C(=O)Nc3cccnc32)c2ccccc21 [GW441756] (first compound 0.1 µM, partner dose 0.4 µM), 132%; that for `CCc1ccc(CCOc2ccc(CC3SC(=O)NC3=O)cc2)nc1` (configuration not stated) [pioglitazone] + Cn1cc(/C=C2\C(=O)Nc3cccnc32)c2ccccc21 [GW441756] (first compound 2 µM, partner dose 0.4 µM), 96.6%. The result for `COc1ccc(COc2ccc(Cc3cnc(N)nc3N)cc2OC)cc1` + COc1cc2ncnc(Nc3ccc(Oc4ccccc4)cc3)c2cc1OC [SrcI1] (first compound 1 µM, partner dose 2 µM) reads 64.5%. On to `O=S(=O)(c1ccccc1)N(CC(F)(F)F)c1ccc(C(O)(C(F)(F)F)C(F)(F)F)cc1` + COc1cc2ncnc(Nc3ccc(Oc4ccccc4)cc3)c2cc1OC [SrcI1] (first compound 1.4 µM, partner dose 2 µM), for which the “cleaved PARP positive nuclei fraction” value worked out at 71.4%. As for `COc1ccc2c(c1)CCC1C2CCC2(C)C(NCCCCCCN3C(=O)C=CC3=O)CCC12` (configuration not stated) + Cn1cc(/C=C2\C(=O)Nc3cccnc32)c2ccccc21 [GW441756] (first compound 0.4 µM, partner dose 0.4 µM), the figure is 82.9%. Regarding `CN(NC(=O)CC(=O)NN(C)C(=S)c1ccccc1)C(=S)c1ccccc1` + Cc1cc([N+](=O)[O-])ccc1NS(=O)(=O)c1cc(Cl)ccc1Cl [FH535] (first compound 0.006 µM, partner dose 1 µM), the “cleaved PARP positive nuclei fraction” value stood at 334%. Take `N#Cc1c(O)c2c(-c3ccc(-c4ccccc4O)cc3)csc2[nH]c1=O` + c1cc(-c2cnn3cc(-c4ccc(OCCN5CCCCC5)cc4)cnc23)ccn1 [Dorsomorphin] (first compound 2 µM, partner dose 0.4 µM): the “cleaved PARP positive nuclei fraction” value was determined as 201%.
